Measured values from the supplement of paper PMC4604168 (melanoma cell lines).
Some of the results follow. Single values are uncertain, as repeats are few or missing.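 The apoptosis fraction was the count of cleaved-PARP antibody-stained nuclei relative to all DNA-stained nuclei, imaged in 1,536-well plates. Screening doses were set so most cells survived, and baseline and induced cleaved-PARP levels vary greatly across cell lines.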

Key:
Assay in all cases: cleaved PARP positive nuclei fraction relative to DMSO control; melanoma cells; higher = more apoptosis
Details in all cases: library dose: low library concentration; 72 h
[1] = tested on: MZ2-MEL
[2] = tested on: MeWo
[3] = tested on: RPMI7951
[4] = tested on: RVH-421
[5] = tested on: SkMel28
[6] = tested on: SkMel2
[7] = tested on: SkMel30
[8] = tested on: SkMel5
[9] = tested on: UACC257
[10] = tested on: UACC62
[11] = tested on: WM115
[12] = tested on: WM1716
[13] = tested on: WM1745
[14] = tested on: WM3526
[15] = tested on: WM3619
[16] = tested on: WM451Lu

Compound	cleaved PARP positive nuclei fraction [1] [%]	cleaved PARP positive nuclei fraction [2] [%]	cleaved PARP positive nuclei fraction [3] [%]	cleaved PARP positive nuclei fraction [4] [%]	cleaved PARP positive nuclei fraction [5] [%]	cleaved PARP positive nuclei fraction [6] [%]	cleaved PARP positive nuclei fraction [7] [%]	cleaved PARP positive nuclei fraction [8] [%]	cleaved PARP positive nuclei fraction [9] [%]	cleaved PARP positive nuclei fraction [10] [%]	cleaved PARP positive nuclei fraction [11] [%]	cleaved PARP positive nuclei fraction [12] [%]	cleaved PARP positive nuclei fraction [13] [%]	cleaved PARP positive nuclei fraction [14] [%]	cleaved PARP positive nuclei fraction [15] [%]	cleaved PARP positive nuclei fraction [16] [%]
Nc1nc(F)nc2c1ncn2[C@@H]1O[C@H](CO)[C@@H](O)[C@@H]1O [fludarabine] + N#Cc1c(O)c2c(-c3ccc(-c4ccccc4O)cc3)csc2[nH]c1=O [A769662] (first compound 0.2 µM, partner dose 2 µM)	119	985	90.4	79.1	220	735	542	118	49.8	487	35	51.3	91.9	640	94	101
Cc1cc(Nc2cc(N3CCN(C)CC3)nc(/C=C/c3ccccc3)n2)n[nH]1 + C[C@@H]1CCN(C(=O)CC#N)C[C@@H]1N(C)c1ncnc2[nH]ccc12 [CP690550] (first compound 0.04 µM, partner dose 1 µM)	95.1	107	32.8	40.1	82.8	198	67.5	31	119	76	87.7	91.3	215	186	92.7	69.5
C[C@@H](Oc1cc(-c2cnn(C3CCNCC3)c2)cnc1N)c1c(Cl)ccc(F)c1Cl [Crizotinib] + COC(=O)c1sccc1S(=O)(=O)Nc1ccc(Nc2ccccc2)cc1OC [GSK0660] (first compound 0.2 µM, partner dose 1 µM)	35.1	308	185	24	146	167	100	71.2	49.8	577	137	262	87.8	82	86.3	238
Nc1ccn([C@@H]2O[C@H](CO)[C@@H](O)C2(F)F)c(=O)n1 [gemcitabine] + COc1ccc(COc2ccc(Cc3cnc(N)nc3N)cc2OC)cc1 [GW2580] (first compound 0.0004 µM, partner dose 1 µM)	77.2	51.9	135	43.6	117	55.2	223	73.3	45.1	48.3	111	161	113	39.3	156	35.4
CC(C)C[C@H](NC(=O)[C@H](Cc1ccccc1)NC(=O)c1cnccn1)B(O)O [Bortezomib] + C=CCn1c(=O)c2cnc(Nc3ccc(N4CCN(C)CC4)cc3)nc2n1-c1cccc(C(C)(C)O)n1 [MK1775] (first compound 0.001 µM, partner dose 0.02 µM)	37	149	98.9	154	433	45	73.5	139	173	139	209	228	122	94.4	230	56.7
Nc1ncn([C@H]2C[C@H](O)[C@@H](CO)O2)c(=O)n1 [decitabine] + CC(C)CCN1c2nc(Nc3cc(F)c(O)c(F)c3)ncc2N(C)C(=O)C1C [BID1870] (first compound 0.1 µM, partner dose 0.2 µM)	47.5	120	774	245	100	140	38.4	69.2	49.8	78.9	159	266	81.9	77.8	151	130
Cc1cc(Nc2cc(N3CCN(C)CC3)nc(/C=C/c3ccccc3)n2)n[nH]1 + COc1ccc2c(c1)CCC1C2CCC2(C)C(NCCCCCCN3C(=O)C=CC3=O)CCC12 [U73122] (first compound 0.04 µM, partner dose 0.4 µM)	164	186	266	144	221	182	49.2	93.1	67.5	405	56.3	240	81.2	83.3	119	78.8
CCCS(=O)(=O)Nc1ccc(F)c(C(=O)c2c[nH]c3ncc(Cl)cc23)c1F + N#Cc1c(O)c2c(-c3ccc(-c4ccccc4O)cc3)csc2[nH]c1=O [A769662] (first compound 0.08 µM, partner dose 2 µM)	28.9	34.4	118	225	362	75.9	166	66.2	155	154	94.9	80.9	106	89.2	86.8	49
CN1CCN(c2ccc3nc(-c4c(N)c5c(F)cccc5[nH]c4=O)[nH]c3c2)CC1 [Dovitinib] + Cc1cc(N2CCOCC2)cc2[nH]c(-c3c(NC[C@@H](O)c4cccc(Cl)c4)cc[nH]c3=O)nc12 [BMS536924] (first compound 0.1 µM, partner dose 0.2 µM)	211	129	87.5	47.6	27.5	74.5	696	159	119	331	210	155	128	83.8	132	112
O=C(O)[C@@H]1[O][Sb](=[O])([O][Sb]2(=[O])[O][C@H]([C@H](O)CO)[C@H](O)[C@H](C(=O)O)[O]2)[O][C@H]([C@H](O)CO)[C@@H]1O (stereo partly drawn) [stibogluconate] + O=C1NC(=O)/C(=C/c2ccc(-c3ccc(F)cc3O)o2)S1 [AS252424] (first compound 2 µM, partner dose 1 µM)	135	106	207	120	116	80.9	37	69.6	345	306	146	107	202	232	97.7	48.1
Cn1c(=O)n(-c2ccc(C(C)(C)C#N)cc2)c2c3cc(-c4cnc5ccccc5c4)ccc3ncc21 + N#Cc1c(O)c2c(-c3ccc(-c4ccccc4O)cc3)csc2[nH]c1=O [A769662] (first compound 0.004 µM, partner dose 2 µM)	115	138	127	167	201	112	59.6	72.4	39.4	144	141	51.6	80.2	407	117	807
Cn1c(=O)n(-c2ccc(C(C)(C)C#N)cc2)c2c3cc(-c4cnc5ccccc5c4)ccc3ncc21 + C=CCn1c(=O)c2cnc(Nc3ccc(N4CCN(C)CC4)cc3)nc2n1-c1cccc(C(C)(C)O)n1 [MK1775] (first compound 0.004 µM, partner dose 0.02 µM)	174	107	42	74.3	105	73.9	88.9	52.3	230	177	128	247	315	273	126	26.8
C=C(c1ccc(C(=O)O)cc1)c1cc2c(cc1C)C(C)(C)CCC2(C)C [Bexarotene] + O=C1NC(=O)/C(=C/c2ccc(-c3ccc(F)cc3O)o2)S1 [AS252424] (first compound 2 µM, partner dose 1 µM)	172	66.4	112	205	214	82.6	115	162	91.5	121	106	78.7	94.2	77.1	204	191
Nc1ncn([C@H]2C[C@H](O)[C@@H](CO)O2)c(=O)n1 [decitabine] + c1cc(-c2cnn3cc(-c4ccc(OCCN5CCCCC5)cc4)cnc23)ccn1 [Dorsomorphin] (first compound 0.1 µM, partner dose 0.4 µM)	70.2	41.5	128	64.2	165	40	311	65.2	39.8	122	138	50.3	88	81.8	171	46.7
CCCS(=O)(=O)Nc1ccc(F)c(C(=O)c2c[nH]c3ncc(Cl)cc23)c1F + Oc1nc(-c2ccc(C(F)(F)F)cc2)nc2c1CSCC2 [XAV939] (first compound 0.08 µM, partner dose 2 µM)	76.1	99.9	133	171	51.6	61	78.7	78.7	90.1	160	111	139	114	98.4	113	46.9
Cc1cc(Nc2cc(N3CCN(C)CC3)nc(/C=C/c3ccccc3)n2)n[nH]1 + COc1ccc(COc2ccc(Cc3cnc(N)nc3N)cc2OC)cc1 [GW2580] (first compound 0.04 µM, partner dose 1 µM)	68.7	139	237	48.6	216	102	242	148	135	133	41.6	116	102	70.2	98.5	236
CN1CCN(c2ccc3nc(-c4c(N)c5c(F)cccc5[nH]c4=O)[nH]c3c2)CC1 [Dovitinib] + CC1(C)NC(=O)N(c2ccc([N+](=O)[O-])c(C(F)(F)F)c2)C1=O [nilutamide] (first compound 0.1 µM, partner dose 1 µM)	83.4	69.2	52.4	138	128	67.3	256	289	52.8	72.7	136	8.35	88.9	158	94.8	40.5
Nc1nc(F)nc2c1ncn2[C@@H]1O[C@H](CO)[C@@H](O)[C@@H]1O [fludarabine] + COc1ccc2c(c1)CCC1C2CCC2(C)C(NCCCCCCN3C(=O)C=CC3=O)CCC12 [U73122] (first compound 0.2 µM, partner dose 0.4 µM)	2020	625	91.8	170	118	1090	1190	247	65.4	85.8	291	126	162	3030	186	2690

Given bar-delimited: part of the list above.
Compound | cleaved PARP positive nuclei fraction [1] [%] | cleaved PARP positive nuclei fraction [2] [%] | cleaved PARP positive nuclei fraction [3] [%] | cleaved PARP positive nuclei fraction [4] [%] | cleaved PARP positive nuclei fraction [5] [%] | cleaved PARP positive nuclei fraction [6] [%] | cleaved PARP positive nuclei fraction [7] [%] | cleaved PARP positive nuclei fraction [8] [%] | cleaved PARP positive nuclei fraction [9] [%] | cleaved PARP positive nuclei fraction [10] [%] | cleaved PARP positive nuclei fraction [11] [%] | cleaved PARP positive nuclei fraction [12] [%] | cleaved PARP positive nuclei fraction [13] [%] | cleaved PARP positive nuclei fraction [14] [%] | cleaved PARP positive nuclei fraction [15] [%] | cleaved PARP positive nuclei fraction [16] [%]
Cn1c(=O)n(-c2ccc(C(C)(C)C#N)cc2)c2c3cc(-c4cnc5ccccc5c4)ccc3ncc21 + N#Cc1c(O)c2c(-c3ccc(-c4ccccc4O)cc3)csc2[nH]c1=O [A769662] (first compound 0.004 µM, partner dose 2 µM) | 115 | 138 | 127 | 167 | 201 | 112 | 59.6 | 72.4 | 39.4 | 144 | 141 | 51.6 | 80.2 | 407 | 117 | 807
Cn1c(=O)n(-c2ccc(C(C)(C)C#N)cc2)c2c3cc(-c4cnc5ccccc5c4)ccc3ncc21 + C=CCn1c(=O)c2cnc(Nc3ccc(N4CCN(C)CC4)cc3)nc2n1-c1cccc(C(C)(C)O)n1 [MK1775] (first compound 0.004 µM, partner dose 0.02 µM) | 174 | 107 | 42 | 74.3 | 105 | 73.9 | 88.9 | 52.3 | 230 | 177 | 128 | 247 | 315 | 273 | 126 | 26.8
